Laboratory results: PubChem BioAssay AID686943 (Drosophila RNAi Screening Center, 2013)
Screen: 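Fly genes whose loss alters ERK activation after insulin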 (primary screen). Cell system: Drosophila S2R+ haemocyte-like cells expressing YFP-tagged ERK (Rolled). Knock-down reagent: long dsRNA against Drosophila genes. Challenge: insulin stimulation versus unstimulated cells; dose and duration not given. Measurement: 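Per-plate z-scores of phospho-ERK immunostaining normalised to YFP-tagged ERK, measured with and without insulin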. Reading the numbers: replicate 1, z-score of dpERK with insulin: higher = more active ERK per ERK-YFP after insulin.
The screen tested about 23,000 reagents; below is a random part of those with a known target gene and a result. 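Extra replicates exist only for a retested subset of genes; insulin dose and duration not given; both raised and lowered dpERK matter.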 Names joined by + are all predicted targets of the reagent. Further read-outs or replicates are left out here. Not given: the amount of reagent, the time to read-out.

replicate 1, z-score of dpERK with insulin, by target gene and reagent
Nt5b: DRSC19976 -0.57; DRSC19977 0.33; DRSC19978 -0.28; DRSC22588 0.33
janA: DRSC16972 -0.82
CG12817 + CG12420: DRSC22814 0.96
Cndp2: DRSC04873 -0.06
CG4627: DRSC06873 0.31
numb: DRSC03584 0.17
CG9328: DRSC03203 1.22
gsb: DRSC04692 0.39
Oseg6: DRSC06066 -0.29
CG5250: DRSC15752 -0.57
CG11113: DRSC06039 0.42
CG42307 + mus312: DRSC11008 0.73
CG14739: DRSC14959 0.23
MSBP: DRSC20146 0.87
alpha4GT2: DRSC13732 -0.42; DRSC15905 -0.81
ana: DRSC07579 -0.36
Nup160: DRSC02774 -0.48
CG8839: DRSC07285 -0.02
slbo: DRSC04716 0.64
CG10205: DRSC05979 -1.4
inaF-B + inaF-D + inaF-C + 1 more: DRSC20342 0.29
CG13405: DRSC08310 1.18
nis: DRSC00290 -1.72
CG32833: DRSC04596 -0.26
Eaat1: DRSC03321 0.26
TotM: DRSC02355 -0.09
fog: DRSC20646 0.5
Khc-73: DRSC07449 0.37
CG18870: DRSC04313 -0.47
CG11808: DRSC06088 -0.1
CG6262: DRSC06971 -1.34
CG32069 + Blos2: DRSC10621 0.32
CG30495: DRSC06703 0.06
Atg1: DRSC09809 0.18; DRSC09810 0.76
goe: DRSC19345 0.44
CG3655: DRSC17676 0.51; DRSC18181 0.77; DRSC18477 -0.1; DRSC22688 -3.89
spn-D: DRSC22641 -0.06
CG3587: DRSC18541 0.14; DRSC21966 -0.3
nmd: DRSC02856 0.71
CG34133: DRSC16319 -0.75; DRSC22239 0.01
Rad9: DRSC11263 0.08
Usp7: DRSC18909 0.27; DRSC19604 0.35
SmydA-3: DRSC02565 -0.89; DRSC02566 0.13
CG14630: DRSC18166 0.82; DRSC18653 -0.47

Records above whose target name begins with S or s (4):
replicate 1, z-score of dpERK with insulin, by target gene and reagent
slbo: DRSC04716 0.64
spn-D: DRSC22641 -0.06
SmydA-3: DRSC02565 -0.89; DRSC02566 0.13
